# Measured values reported in PubChem BioAssay AID1347075 (National Center for Advancing Translational Sciences (NCATS), 2019).
# About 5,500 (1.4%) of roughly 400,000 compounds were called active. The shares of active, inactive and inconclusive entries below differ from those in the screen. Calls come from the whole dose curve; as a rule, active = well fitted cell-killing curve with a large enough effect; inconclusive = small, poorly fitted or top-dose-only effect, or effect the other way; inactive = flat fitted curve, though single readings scatter. Potencies beside an inconclusive call are fits to weak or partial responses and may not hold up.
# Assay: qHTS assay for MDR1-selective chemotherapeutics: Primary screen using the parental adenocarcinoma cell KB-3-1; note: nearly all actives have a fitted effect of over 60% in size
# Conditions: KB-3-1 viability, CellTiter-Glo ATP luminescence, 72 h; activity change, negative = cytotoxic: at 46.1 µM (top of the series)
# Procedure, shortened: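 Luminescent ATP read-out (CellTiter-Glo) measures survival of drug-naive KB-3-1 cells after 72 h compound exposure at 37 °C. Titration series was screened from lowest to highest concentration, with DMSO vehicle plates as background controls.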
# % is set by controls: 0 for no effect and ±100 for the full control effect; potency is the fitted concentration of half-maximal effect.
Compound,"activity change, negative = cytotoxic",Potency
Nc1cc(=O)[nH]c(=O)n1CCc1ccccc1,inactive: 3.56%,
Cc1ccc2cc(CN(Cc3ccco3)S(=O)(=O)c3c(C)ccc4nsnc34)c(=O)[nH]c2c1,,"inconclusive: 8.2 µM [cytotoxic, single point]"
Cc1cc(C)cc(C(=O)N(NC(=O)Nc2ccc(Cl)cc2)C(C)(C)C)c1,,"inconclusive: 29.1 µM [cytotoxic, single point]"
COc1ccc(-c2ccc(OC)cc2)cc1,inactive: 1.77%,
CN(C)CCCNC(=O)C[C@H]1C[C@H](C(=O)N2CCCCC2)[C@@]2(CCc3ccccc3)c3[nH]c4cc(-c5ccco5)ccc4c3CCN2C1=O,,"inconclusive: 29.1 µM [cytotoxic, single point]"
Cc1ccc(Cl)cc1NC(=O)CN1C(=O)C(C)(C)c2cc(S(=O)(=O)N3CCCCC3)ccc21,,"inconclusive: 23.1 µM [cytotoxic, single point]"
FC(F)(F)c1cc(-c2ccccc2)nc(NCc2cccnc2)n1,,"inconclusive: 29.1 µM [cytotoxic, single point]"
O=C(Nc1cccnc1)C12CC3CC(CC(C3)C1)C2,inactive: -7.6%,
COc1cc(/C=C(\C#N)C(=O)Nc2ccccc2F)ccc1OCCN1CCOCC1,,"inconclusive: 29.1 µM [rising, single point]"
O=C(O)c1ccc(NC2=C/C(=N/S(=O)(=O)c3ccccc3)c3ccccc3C2=O)cc1,,active: 18.4 µM
O=C(N/N=C\c1cccc(Cl)c1)c1ccc(Cn2cc(Br)c([N+](=O)[O-])n2)o1,,"inconclusive: 13 µM [rising, partial curve]"
COc1ccc(N2C(=S)N=C(Nc3cccc(C)c3)C23CCCCC3)cc1,inactive: -23%,
Cc1ccc(Cn2c(=S)[nH]c3ccc(N4CCOCC4)cc3c2=O)o1,,"inconclusive: 20.6 µM [cytotoxic, single point]"
C/C(=N\NC(=O)CSCc1ccc([N+](=O)[O-])cc1)c1ccccc1O,inactive: -1.67%,
COc1cc(SC)ccc1C(=O)Nc1ccc2c(c1)OCO2,,"inconclusive: 25.9 µM [cytotoxic, partial curve, poor fit]"
Cc1cccc(Cc2c(C)nc3nc(SCC(=O)NCc4ccco4)nn3c2C)c1,,"inconclusive: 29.1 µM [cytotoxic, single point]"
CC(C)c1ccc(NC(=O)Cn2c(=O)oc3cc(S(=O)(=O)N4CCCC4)ccc32)cc1,,"inconclusive: 29.1 µM [cytotoxic, single point]"
COc1ccc(OCCNC(=O)C2(C)CCN2Cc2ccc3ccccc3c2)cc1 (stereo not drawn),,"inconclusive: 20.6 µM [cytotoxic, single point]"
O=C(CSc1nnc(-c2ccccc2)c(-c2ccccc2)n1)NCc1ccco1,,"inconclusive: 29.1 µM [cytotoxic, single point]"
c1ccc(Oc2cccc(OCCCCN3CCCC3)c2)cc1,inactive: -1.78%,
Cc1cccc(C)c1NC(=O)N1CCC(c2nc3ccccc3o2)CC1,inactive: 5.18%,
O=C(COC(=O)c1ncc(Cl)c(Cl)c1Cl)NC(=O)NCc1ccccc1,,"inconclusive: 14.6 µM [cytotoxic, partial curve]"
Cn1cc(-c2cc3n(n2)CCC(=O)N3CCCC(=O)Nc2ccccc2F)c2ccccc21,inactive: 3.67%,

# Full records as entered above.
# c1ccc(Oc2cccc(OCCCCN3CCCC3)c2)cc1 is entered as activity change, negative = cytotoxic: inactive: -1.78%
# Cn1cc(-c2cc3n(n2)CCC(=O)N3CCCC(=O)Nc2ccccc2F)c2ccccc21 is entered as activity change, negative = cytotoxic: inactive: 3.67%
# COc1ccc(N2C(=S)N=C(Nc3cccc(C)c3)C23CCCCC3)cc1 is entered as activity change, negative = cytotoxic: inactive: -23%
# O=C(O)c1ccc(NC2=C/C(=N/S(=O)(=O)c3ccccc3)c3ccccc3C2=O)cc1 is entered as Potency: active: 18.4 µM

# Additional records follow.

Compound,"activity change, negative = cytotoxic",Potency
CCc1c(C)c(C#N)c2nc3ccccc3n2c1Nc1cccc(C(F)(F)F)c1,,"inconclusive: 16.4 µM [cytotoxic, partial curve, poor fit]"
CC1CC(C)CN(C(=O)C2CCCN(S(=O)(=O)c3cnc[nH]3)C2)C1 (stereo not drawn),,"inconclusive: 3.26 µM [cytotoxic, partial curve, poor fit]"
O=C(N/N=C/c1ccccc1)c1ccc(CN2C(=O)c3cccc4cccc2c34)cc1,inactive: 0%,
O=C(NC1CCCC1)C(c1ccncc1)N(Cc1ccccc1)C(=O)Cc1cccs1 (stereo not drawn),inactive: 2.09%,
COc1ccc(OC)c(S(=O)(=O)Nc2cnc3ccccc3c2)c1,inactive: -21.3%,
Clc1ccc(-n2nnnc2-c2cnc(-c3ccncc3)nc2-c2cccs2)cc1,,"inconclusive: 29.1 µM [cytotoxic, single point]"
CCOc1ccc(/C=N/OCC(=O)Nc2cc(S(=O)(=O)N3CCOCC3)ccc2OC)cc1,inactive: 9.6%,
CSCCC(NS(=O)(=O)c1ccc(C)cc1C)C(=O)Nc1cccnc1 (stereo not drawn),inactive: -3.65%,
O=S(=O)(c1cccc(Cl)c1)N1CCN(c2nc(-c3cccs3)nc3ccccc23)CC1,,"inconclusive: 29.1 µM [rising, single point]"
Cc1ccc(S(=O)(=O)Nc2ccc3c(c2)nc(CCN2CCOCC2)n3C)cc1,,"inconclusive: 16.4 µM [cytotoxic, single point]"
c1ccc(-c2nc(-c3ccccn3)no2)cc1,,active: 9.2 µM
CCCCOc1ccc(CSC2=NCCN2)cc1[N+](=O)[O-],,"inconclusive: 18.4 µM [cytotoxic, single point]"
C=CCn1c(SCC(=O)/C(C#N)=C(\C)N)nc2sc(CC)cc2c1=O,,"inconclusive: 29.1 µM [cytotoxic, single point]"
O=C(OCc1nc2ccccc2s1)c1ccc(Br)o1,,"inconclusive: 16.4 µM [rising, single point]"
NS(=O)(=O)c1ccc(CCNC(=O)Cc2ccc(S(=O)(=O)N3CCOCC3)s2)cc1,,"inconclusive: 2.31 µM [rising, partial curve]"
O=C(COc1ccccc1Cl)N1CCN(C(=O)c2ccco2)CC1,,"inconclusive: 25.9 µM [rising, single point]"
Cc1cccn2c(=O)c(C(=O)NC3CC(C)CC(C)(C)C3)c(O)nc12 (stereo not drawn),,"inconclusive: 29.1 µM [cytotoxic, single point]"
CC1(C)C(=O)Nc2ccccc2N1C(=O)COC(=O)Cc1ccccc1F,,"inconclusive: 6.51 µM [rising, single point]"
COc1cc(/C=C2\C(=O)ON=C2c2ccc(Cl)cc2)ccc1O,,"inconclusive: 32.6 µM [cytotoxic, single point]"
COc1ccc(C(C)(O)c2nc(-c3ccccc3C)cs2)cc1 (stereo not drawn),,active: 4.61 µM
c1cc(C2CCN(Cc3nc(-c4ccc5c(c4)OCO5)no3)CC2)ccn1,,"inconclusive: 14.6 µM [cytotoxic, partial curve]"
COc1ccc(Nc2nc(OC)nc(OC)n2)cc1,inactive: 0.289%,
COc1ccc(C(=O)Nc2ccc(-c3cn4ccsc4n3)cc2)cc1S(=O)(=O)N1CCOCC1,,"inconclusive: 2.06 µM [rising, full curve, poor fit]"

Compound,"activity change, negative = cytotoxic",Potency
NC(=O)CC(NC(=O)Cc1ccc(Br)cc1)c1ccc(NC2CCCCCCC2)c([N+](=O)[O-])c1 (stereo not drawn),,"inconclusive: 23.1 µM [cytotoxic, single point]"
O=C(/C=C/c1ccc2ccccc2n1)N1CCN(S(=O)(=O)c2ccc(F)cc2)CC1,,"inconclusive: 29.1 µM [cytotoxic, single point]"
NC(=O)CC(NC(=O)Cc1ccc(Br)cc1)c1ccc(NCc2ccc(F)c(F)c2)c([N+](=O)[O-])c1 (stereo not drawn),,"inconclusive: 18.4 µM [cytotoxic, single point]"
COc1cc(/C=C2\C=CC(=O)O2)cc(OC)c1,,"inconclusive: 23.1 µM [cytotoxic, single point]"
Cc1ccc(-c2cc(C(=O)Nc3cccnc3)c3ccccc3n2)o1,,"inconclusive: 29.1 µM [cytotoxic, single point]"
CCc1nc2c(cnn2-c2ccc(Cl)cc2)c(=O)n1-c1ccc(OC)cc1,,"inconclusive: 29.1 µM [cytotoxic, single point]"
COc1ccc(C=CC(=O)c2ccc3cc(OC)c(OC)cc3c2)cc1OC,,"inconclusive: 29.1 µM [cytotoxic, single point]"
COc1ccc(NC(=O)c2ccc3c(c2)CCN3S(=O)(=O)c2ccccc2)cc1,inconclusive: -36.3% [cytotoxic],
S=c1[nH]cc(Oc2ccc(Cl)cc2Cl)c(=S)[nH]1,inactive: 3.26%,
CCOC(=O)C1CCN(C(c2cc3c(C)ccc(C)c3[nH]c2=O)c2nnnn2C2CCCCC2)CC1 (stereo not drawn),inactive: -16.5%,
N#CC1=C(N)Oc2n[nH]c(-c3ccc(F)cc3)c2C1c1ccncc1 (stereo not drawn),,"inconclusive: 0.0146 µM [rising, full curve]"
COc1ccc(NC(=S)NCCc2ccccc2OC)c(OC)c1,,"inconclusive: 29.1 µM [cytotoxic, single point]"
Cc1cc(C(=O)Nc2sc3c(c2C#N)CCCC3)no1,,"inconclusive: 29.1 µM [cytotoxic, single point]"
COc1ccc(CN2CCN(S(=O)(=O)c3ccc(NC(C)=O)cc3)CC2)c(OC)c1OC,,"inconclusive: 29.1 µM [cytotoxic, single point]"
CCCCCCSc1ccc(-c2nc3ccccn3c2NCCCC)cc1,inactive: 0%,
CCCC1(CC)C(=O)NC(=O)N=C1N (stereo not drawn),inactive: 9.48%,
OCCN1CCN(Cc2cc(Cl)c3cccnc3c2O)CC1,,"inconclusive: 23.1 µM [cytotoxic, single point]"
C/C(CC(C)C)=N\Nc1ccc(S(N)(=O)=O)cc1[N+](=O)[O-],inactive: 8.13%,
CS(=O)(=O)c1ccc(C(=O)OCC(=O)N2CCN(CCC3CCCCC3)CC2)cc1[N+](=O)[O-],,active: 6.51 µM
COc1ccc2cc1Oc1ccc(cc1)C[C@H]1c3cc(c(OC)cc3CCN1C)Oc1c(O)c(OC)cc3c1[C@H](C2)N(C)CC3,,"inconclusive: 29.1 µM [cytotoxic, single point]"
COc1ccccc1N1CCN(C(=O)C(Sc2ccccc2)c2ccccc2)CC1 (stereo not drawn),,"inconclusive: 18.4 µM [cytotoxic, single point]"
O=C(Nc1ccn(Cc2ccccc2F)n1)c1ccc(COc2cccc(Br)c2)cc1,,"inconclusive: 29.1 µM [cytotoxic, single point]"
